Results are given in words; binding and its absence hold for the method and conditions named. Binding seen in cells or lysates may run through a third protein. Some entries that bind do so weakly or less than the wild type.
How the values were obtained:
[1] = target: E1A-binding protein, 300 kDa (p300), wild type (mouse (endogenous in P19)) (UniProt B2RWS6); experiment: co-IP; wild type P19 cells; 200 μg nuclear protein in co-ip buffer (25mM Tris HCl pH7.5, 150mM NaCl, 5% glycerol, 0.5% NP40, 1mM EDTA, 2mM DTT), 2 μg CBP, p300 or normal rabbit IgG antibody overnight at 4°C, protein A-agarose; immunoblot for β-catenin
[2] = target: cAMP response element binding protein (CREB)-binding protein (CBP) (mouse (endogenous in P19)) (UniProt P45481); experiment: as above
[3] = target: cAMP response element binding protein (CREB)-binding protein (CBP) (mouse (endogenous in P19)) (UniProt P45481); experiment: co-IP; p300-edited P19 cells (clone 10); 200 μg nuclear protein in co-ip buffer (25mM Tris HCl pH7.5, 150mM NaCl, 5% glycerol, 0.5% NP40, 1mM EDTA, 2mM DTT), 2 μg CBP, p300 or normal rabbit IgG antibody overnight at 4°C, protein A-agarose; immunoblot for β-catenin

Sequences of proteins named here, by UniProt entry; tags and fusion partners are left off. A change or cut given only in a name is not applied to a line headed by its entry.
UniProt B2RWS6: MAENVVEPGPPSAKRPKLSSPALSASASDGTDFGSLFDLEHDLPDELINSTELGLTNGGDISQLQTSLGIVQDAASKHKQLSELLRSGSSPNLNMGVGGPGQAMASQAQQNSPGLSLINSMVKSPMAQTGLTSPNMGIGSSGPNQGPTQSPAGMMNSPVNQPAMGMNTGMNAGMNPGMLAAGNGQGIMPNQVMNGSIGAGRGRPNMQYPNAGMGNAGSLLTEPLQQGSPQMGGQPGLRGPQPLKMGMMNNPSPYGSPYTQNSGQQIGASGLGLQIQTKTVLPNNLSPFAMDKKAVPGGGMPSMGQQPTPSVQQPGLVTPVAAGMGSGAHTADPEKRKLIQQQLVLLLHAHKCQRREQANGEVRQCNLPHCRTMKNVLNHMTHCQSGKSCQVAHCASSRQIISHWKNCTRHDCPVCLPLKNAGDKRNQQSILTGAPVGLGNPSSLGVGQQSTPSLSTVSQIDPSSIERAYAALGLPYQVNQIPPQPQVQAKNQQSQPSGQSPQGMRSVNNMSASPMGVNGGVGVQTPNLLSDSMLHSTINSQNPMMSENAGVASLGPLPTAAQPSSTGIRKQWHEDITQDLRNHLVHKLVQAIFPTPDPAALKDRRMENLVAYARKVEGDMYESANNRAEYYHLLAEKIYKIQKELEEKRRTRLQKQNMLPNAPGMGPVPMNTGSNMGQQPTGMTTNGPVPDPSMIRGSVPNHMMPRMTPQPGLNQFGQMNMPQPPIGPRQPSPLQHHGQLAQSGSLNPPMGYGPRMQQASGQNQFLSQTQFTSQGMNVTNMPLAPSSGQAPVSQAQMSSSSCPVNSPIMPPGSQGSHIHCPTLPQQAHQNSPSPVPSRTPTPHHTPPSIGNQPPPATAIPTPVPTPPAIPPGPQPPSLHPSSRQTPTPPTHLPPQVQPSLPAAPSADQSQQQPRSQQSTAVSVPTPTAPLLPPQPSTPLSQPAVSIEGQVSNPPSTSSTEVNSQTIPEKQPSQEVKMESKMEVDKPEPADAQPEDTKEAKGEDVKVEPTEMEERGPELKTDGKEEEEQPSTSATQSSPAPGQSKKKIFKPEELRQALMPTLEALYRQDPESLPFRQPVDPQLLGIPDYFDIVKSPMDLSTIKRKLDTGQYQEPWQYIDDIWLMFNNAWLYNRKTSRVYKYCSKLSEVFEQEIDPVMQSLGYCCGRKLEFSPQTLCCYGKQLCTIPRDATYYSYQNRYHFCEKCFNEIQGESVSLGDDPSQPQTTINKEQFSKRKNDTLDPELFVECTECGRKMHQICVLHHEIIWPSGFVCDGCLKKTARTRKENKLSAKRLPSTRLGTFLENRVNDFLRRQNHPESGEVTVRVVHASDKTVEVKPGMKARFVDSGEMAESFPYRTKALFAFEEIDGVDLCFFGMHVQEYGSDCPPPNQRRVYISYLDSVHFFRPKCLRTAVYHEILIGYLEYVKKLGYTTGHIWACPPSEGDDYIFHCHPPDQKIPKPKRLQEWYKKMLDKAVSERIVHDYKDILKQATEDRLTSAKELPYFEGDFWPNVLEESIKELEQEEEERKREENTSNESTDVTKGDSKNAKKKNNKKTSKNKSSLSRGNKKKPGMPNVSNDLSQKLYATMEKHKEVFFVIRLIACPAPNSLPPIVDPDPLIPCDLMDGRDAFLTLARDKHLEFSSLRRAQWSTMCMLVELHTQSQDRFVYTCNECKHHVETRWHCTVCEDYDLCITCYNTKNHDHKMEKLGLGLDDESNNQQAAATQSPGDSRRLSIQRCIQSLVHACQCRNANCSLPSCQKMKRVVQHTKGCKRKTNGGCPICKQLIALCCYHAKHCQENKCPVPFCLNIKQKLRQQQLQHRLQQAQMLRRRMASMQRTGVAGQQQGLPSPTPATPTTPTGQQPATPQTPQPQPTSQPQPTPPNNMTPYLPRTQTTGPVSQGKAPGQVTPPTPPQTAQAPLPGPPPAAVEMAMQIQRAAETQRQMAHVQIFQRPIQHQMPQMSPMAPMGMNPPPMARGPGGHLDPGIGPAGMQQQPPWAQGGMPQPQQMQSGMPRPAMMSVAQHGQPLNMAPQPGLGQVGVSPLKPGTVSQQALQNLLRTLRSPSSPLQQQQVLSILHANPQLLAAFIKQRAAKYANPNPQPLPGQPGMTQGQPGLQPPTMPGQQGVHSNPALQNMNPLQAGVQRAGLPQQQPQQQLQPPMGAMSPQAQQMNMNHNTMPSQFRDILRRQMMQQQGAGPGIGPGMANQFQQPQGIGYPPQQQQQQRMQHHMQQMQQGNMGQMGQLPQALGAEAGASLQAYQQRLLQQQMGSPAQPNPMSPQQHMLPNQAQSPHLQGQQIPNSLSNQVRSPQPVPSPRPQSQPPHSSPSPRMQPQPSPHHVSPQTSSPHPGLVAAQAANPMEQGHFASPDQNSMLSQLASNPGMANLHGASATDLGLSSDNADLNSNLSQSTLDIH
UniProt P45481: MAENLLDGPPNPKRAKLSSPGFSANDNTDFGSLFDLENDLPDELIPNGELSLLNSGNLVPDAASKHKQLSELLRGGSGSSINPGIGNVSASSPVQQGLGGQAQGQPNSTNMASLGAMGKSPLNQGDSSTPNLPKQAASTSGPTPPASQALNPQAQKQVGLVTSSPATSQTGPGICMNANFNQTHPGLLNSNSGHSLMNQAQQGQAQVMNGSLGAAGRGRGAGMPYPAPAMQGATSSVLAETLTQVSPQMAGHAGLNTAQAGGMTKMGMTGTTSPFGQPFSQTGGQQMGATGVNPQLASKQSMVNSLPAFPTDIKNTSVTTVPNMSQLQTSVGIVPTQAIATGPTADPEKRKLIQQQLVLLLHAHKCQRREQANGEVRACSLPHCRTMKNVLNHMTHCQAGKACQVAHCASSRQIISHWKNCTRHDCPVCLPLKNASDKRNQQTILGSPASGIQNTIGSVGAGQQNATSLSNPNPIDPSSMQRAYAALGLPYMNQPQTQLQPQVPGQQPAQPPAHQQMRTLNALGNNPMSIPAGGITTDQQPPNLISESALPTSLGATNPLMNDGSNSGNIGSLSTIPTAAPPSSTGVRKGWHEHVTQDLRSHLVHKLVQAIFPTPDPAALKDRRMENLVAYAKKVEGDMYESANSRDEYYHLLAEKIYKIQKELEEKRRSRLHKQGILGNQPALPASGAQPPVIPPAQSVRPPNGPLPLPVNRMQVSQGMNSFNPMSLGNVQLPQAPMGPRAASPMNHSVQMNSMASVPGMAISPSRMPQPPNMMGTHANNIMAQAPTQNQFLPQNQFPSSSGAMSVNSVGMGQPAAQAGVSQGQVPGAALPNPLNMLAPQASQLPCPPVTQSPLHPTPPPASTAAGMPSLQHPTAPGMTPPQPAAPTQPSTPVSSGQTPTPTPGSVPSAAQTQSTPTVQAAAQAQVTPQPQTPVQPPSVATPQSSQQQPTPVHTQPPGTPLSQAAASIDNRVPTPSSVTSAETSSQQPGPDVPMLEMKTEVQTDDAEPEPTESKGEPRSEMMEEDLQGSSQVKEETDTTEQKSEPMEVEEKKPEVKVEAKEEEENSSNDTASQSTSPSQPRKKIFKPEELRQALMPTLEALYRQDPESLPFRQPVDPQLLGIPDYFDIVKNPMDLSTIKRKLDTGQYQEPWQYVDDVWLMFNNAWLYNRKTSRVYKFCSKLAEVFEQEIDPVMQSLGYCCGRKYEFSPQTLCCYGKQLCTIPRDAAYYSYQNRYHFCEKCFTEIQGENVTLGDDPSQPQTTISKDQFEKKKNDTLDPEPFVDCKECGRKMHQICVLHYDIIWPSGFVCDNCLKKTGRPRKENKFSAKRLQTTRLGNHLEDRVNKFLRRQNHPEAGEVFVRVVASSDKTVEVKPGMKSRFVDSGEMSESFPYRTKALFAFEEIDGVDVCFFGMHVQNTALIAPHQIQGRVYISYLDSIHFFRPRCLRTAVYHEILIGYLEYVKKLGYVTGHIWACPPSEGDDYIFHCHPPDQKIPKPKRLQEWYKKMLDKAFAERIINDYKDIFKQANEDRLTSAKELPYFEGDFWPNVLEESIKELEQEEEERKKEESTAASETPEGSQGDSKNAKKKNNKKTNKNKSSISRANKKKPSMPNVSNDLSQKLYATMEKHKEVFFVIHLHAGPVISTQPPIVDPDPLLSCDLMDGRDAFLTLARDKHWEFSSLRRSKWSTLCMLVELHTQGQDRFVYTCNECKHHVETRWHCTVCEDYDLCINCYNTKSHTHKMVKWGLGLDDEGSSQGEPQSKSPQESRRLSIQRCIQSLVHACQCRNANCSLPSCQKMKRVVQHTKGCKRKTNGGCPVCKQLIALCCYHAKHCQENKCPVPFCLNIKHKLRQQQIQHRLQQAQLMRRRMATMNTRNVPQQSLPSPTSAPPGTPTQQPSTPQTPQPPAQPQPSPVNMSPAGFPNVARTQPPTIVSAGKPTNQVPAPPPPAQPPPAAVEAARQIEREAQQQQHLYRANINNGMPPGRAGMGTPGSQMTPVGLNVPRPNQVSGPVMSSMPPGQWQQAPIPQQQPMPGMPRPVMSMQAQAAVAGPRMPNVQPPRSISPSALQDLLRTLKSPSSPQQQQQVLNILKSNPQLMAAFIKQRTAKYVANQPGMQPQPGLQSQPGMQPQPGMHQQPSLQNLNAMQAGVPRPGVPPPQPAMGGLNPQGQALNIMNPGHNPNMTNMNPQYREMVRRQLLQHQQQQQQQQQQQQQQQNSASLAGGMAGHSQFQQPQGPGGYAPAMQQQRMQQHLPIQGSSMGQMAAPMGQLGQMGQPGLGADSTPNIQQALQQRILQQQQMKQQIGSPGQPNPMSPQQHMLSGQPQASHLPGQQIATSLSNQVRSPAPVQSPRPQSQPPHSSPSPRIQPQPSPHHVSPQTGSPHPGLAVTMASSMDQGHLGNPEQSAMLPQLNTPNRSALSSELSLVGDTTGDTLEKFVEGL
UniProt Q02248: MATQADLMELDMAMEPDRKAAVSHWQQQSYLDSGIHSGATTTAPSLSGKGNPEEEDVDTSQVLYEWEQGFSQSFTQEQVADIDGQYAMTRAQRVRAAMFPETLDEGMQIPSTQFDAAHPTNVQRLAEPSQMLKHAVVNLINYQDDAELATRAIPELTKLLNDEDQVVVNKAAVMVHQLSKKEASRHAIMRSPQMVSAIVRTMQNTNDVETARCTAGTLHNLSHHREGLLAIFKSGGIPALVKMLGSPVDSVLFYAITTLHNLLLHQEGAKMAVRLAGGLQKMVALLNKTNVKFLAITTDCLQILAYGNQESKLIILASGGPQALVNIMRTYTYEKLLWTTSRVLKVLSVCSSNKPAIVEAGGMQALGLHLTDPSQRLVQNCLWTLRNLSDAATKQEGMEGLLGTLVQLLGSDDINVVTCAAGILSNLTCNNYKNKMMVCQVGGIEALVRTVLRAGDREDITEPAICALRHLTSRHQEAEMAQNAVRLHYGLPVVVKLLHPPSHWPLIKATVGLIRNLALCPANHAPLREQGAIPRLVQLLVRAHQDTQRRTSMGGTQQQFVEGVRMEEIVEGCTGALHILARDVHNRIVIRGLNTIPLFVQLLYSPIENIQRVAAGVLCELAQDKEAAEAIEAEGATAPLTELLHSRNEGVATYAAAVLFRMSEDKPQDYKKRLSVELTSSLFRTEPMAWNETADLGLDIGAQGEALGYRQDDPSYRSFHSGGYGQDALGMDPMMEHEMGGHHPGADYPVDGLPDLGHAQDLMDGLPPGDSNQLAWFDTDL

Substance: β-catenin (from UniProt Q02248 1-781)
- binding [1]: binds
- binding [2]: binds
- binding [3]: no binding (condition: in p300-edited P19 cells)

From article PMC6051640
